Results on 19 molecules are retold here after article PMC10163288.

Some of the results follow.

The labels stand for the following.
B1: il2ra_site1_3nfp_sap_6_mot_HHH_b1_07078_000000231_0001_39_52_H_._HHH_b1_06581_af2_0001_0000200017_0000001_0_0001 (protein)
chain: SSSSNEEVRELWERVKEADRLFKEGDKEEARRVLEELLKLLEELGDEKAAEQVEFFLEEAKSSSS
B2: il2ra_site2_3nfp_normal_mot_HHH_b1_00660_af2_000000199_0001_40_57_H_._HHH_b1_05706_0001_0000200024_0000001_1 (protein)
chain: SSSSDKEKEKLLEELKEIVENNDEEEFRRVAAEIAHLAYENRDHELFAALAELLYLFAQLSSSSS
B3: il2ra_site2_3nfp_normal_mot_HHH_b1_03851_000000147_0001_21_38_H_._HHH_b1_03513_af2_0001_0000200012_0000001_0 (protein)
chain: SSSSSDEELEQLIREIEEALERGDRDLVLELLLELAELALELDDEEADRFVLEAYARLRSSSSSS
B4: il2ra_site1_2b5i_sap_12_mot_a7d4ab743ae57deeac5d741f7278d18b_0001_af2_000000162_0001_36_49_H_._22a6def34709f75428da830834b17cd3_0001_1_0001_0000200015_0000001_0 … (protein)
chain: SSSSSPEVEALIAEAKRLAAAGKWREAFEALQKAHDLASAAGDEEEEKRVEDVFAELSAKLSSSS
B5: il2ra_site1_2b5i_sap_17_mot_HHH_b1_03148_af2_000000174_0001_43_57_H_._HHH_b1_08270_af2_0001_0000100002_0000001_0_0001_af2pred_0001_af2pred_1 (protein)
chain: SSSSDEVFQRVLELYQEASKLWRNGNPEEARELIERALELAEENNDERLREQLEKAQELLSSSSS
B6: il2ra_site1_1z92_normal_mot_HHH_b2_01902_af2_000000252_0001_25_40_H_._HHH_b1_01554_0001_0000100013_0000001_0 (protein)
chain: SSSSSDEKAAEAIVRVLVQVARLSEEQERLLEELAEELVERGYSELEIMKILDRLAAELQSSSSS
B7: il2ra_site1_1z92_sap_25_mot_1581cc1c700002558836ca695aafbf97_0001_1_af2_000000099_0001_17_32_H_._130e9a9f23395f2cef41dbaa24aede50_0001_af2_0001_0000300018_00000 … (protein)
chain: SSSSSDSAELIVRSAVELAGLSEEQEEELERVAEELKERGVSYEEIIKILDKVALELAENSSSSS
B8: il2ra_site1_2b5i_normal_mot_HHH_b2_04910_000000118_0001_1_19_H_._HHH_b1_07122_af2_0001_0000200012_0000001_0_af2pred_dldesign_0_af2pred (protein)
chain: SSSSDLKKALELFLEADKAFQAGKPDEATALLKEALAIAKAAGANSLLRMIENALKQVESLSSSS
B9: il2ra_site1_2b5i_normal_mot_5de9be3e17529c6517391df70e98d31c_0001_000000287_0001_54_65_H_._HHH_b1_03457_0001_0000200009_0000001_0_af2pred_dldesign_0_af2pred (protein)
chain: SSSSSSEARRLLLEAERAFREGDKERLEEIIKRLKELYEKTKSKLTEAALKAAEEALEELSSSSS
B10: il2ra_site1_3nfp_sap_24_mot_HHH_b1_03429_af2_000000091_0001_1_19_H_._HHH_b1_05431_0001_0000100008_0000001_0_0001 (protein)
chain: SSSSDLERLRELIEEAWKLLAEGNPEEAREVLKEAEELAEELGDRIALRLVRQLLEAAERRSSSS
B11: il2ra_site2_2erj_normal_mot_HHH_b1_06608_000000059_0001_22_39_H_._HHH_b2_01768_0001_0000500018_0000001_0 (protein)
chain: SSSSDEEELEELLRQAEELLKEGDPEEASRVLARAAFLALELRDDEVLRALFELAREVFGSSSSS
B12: il2ra_site2_3nfp_sap_20_mot_HHH_b1_03557_000000106_0001_41_55_H_._HHH_b1_00600_0001_0000700042_0000001_0_0001 (protein)
chain: DFEEDTKRMRELAKDPRFQEVYALLSELQQELKIPPREAIEILRKELEERGDEELLEILEELAQL
B13: il2ra_site1_1z92_normal_mot_HHH_b2_06478_af2_000000093_0001_42_55_H_._707acc9d051fe3a4acad5ad22db0e630_0001_1_af2_0001_0000400023_0000001_0_af2pred_dldesign_0_a … (protein)
chain: NPEEYERIKKLAGGDPEKILKVAVRLARTSGDLTPEELAALEAEARAAIAAKSPEVDELLRRLLE
B14: il2ra_site1_2b5i_sap_13_mot_HHH_b1_02315_000000070_0001_40_56_H_._HHH_b2_01358_0001_0000100002_0000001_0_0001_af2pred_dldesign_0_af2pred (protein)
chain: SSSSSAAALADAAEAEARALRDAGRLREALELLAAAHAELGALGDDAAEERMERAYNELLSSSSS
B15: il2ra_site1_3nfp_normal_mot_HHH_b2_02028_000000257_0001_1_17_H_._8e257ee7c168324b0daa1e7d19ed2966_0001_0001_0000600033_0000001_0_af2pred_0001_af2pred (protein)
chain: SLEEALEFLRQLAEELNDEALKFLVRDLERLVRLGNEESARKLVERSLKEAGDPVLEEVLELLRK
B16: il2ra_site2_2erj_normal_mot_4428453eb85d3cbdb794fa6b82d21c19_0001_000000044_0001_14_30_H_._HHH_b1_00353_0001_0000400019_0000001_1 (protein)
chain: SSSSDLEERLEELEELVRELYKEGNMEEVFRVAVEMLALASERQDPEAQQFVLRVIEELASSSSS
B17: il2ra_site2_3nfp_sap_24_mot_HHH_b1_07764_000000013_0001_24_39_H_._HHH_b1_07817_0001_0000500063_0000001_0_0001 (protein)
chain: SSSSSDERHERMVELAIEAARALGDEEVLELLEELLERAREEGDWRLLLEAYAALARARKNSSSS
B18: il2ra_site2_3nfp_sap_22_mot_HHH_b2_00444_000000178_0001_41_57_H_._HHH_b2_08009_af2_0001_0000100003_0000001_0_0001_af2pred_0001_1_af2pred_swapped (protein)
chain: SSSSDEEERRLRELLEEVEELLRQGNPEEAEKVLQEVALLAIEANDEEILLRVLKLLEELESSSS
B19: il2ra_site2_2erj_sap_24_mot_HHH_b2_01204_af2_000000051_0001_19_34_H_._HHH_b2_00125_0001_0000500030_0000001_0_0001 (protein)
chain: SSSSDVEELLEQVEELIEEGNLEEAAKVLNEAAQLVMEKHDPELYRLLAELARALLERRQSSSSS

For this assay, the target named is il2ra, P01589. Put plainly: yeast display titration.
Broadly, the apparent Kd is the concentration giving half-maximal binding under the conditions of the assay. Take B1: the “apparent Kd” value was “inactive: no binding seen”.
Then B2, with “inactive: no binding seen”; and B3, with “inactive: no binding seen”.
Then B4, with “inactive: no binding seen”; and B5, with “inactive: no binding seen”; and B6, with “inactive: no binding seen”.
As for B7, the figure is inactive: > 988 nM; as for B8, “inactive: no binding seen”; as for B9, “inactive: no binding seen”.
As to B10, the “apparent Kd” value was “inactive: no binding seen”.
Then B11, with “inactive: no binding seen”.
On to B12, for which the “apparent Kd” value was “inactive: no binding seen”.
Turning to B13, the “apparent Kd” value is “inactive: no binding seen”.
As for B14, the entry is “inactive: no binding seen”; as for B15, “inactive: no binding seen”.
For B16, the “apparent Kd” value was “inactive: no binding seen”.
As for B17, the “apparent Kd” value was “inactive: no binding seen”.
Take B18: the “apparent Kd” value is “inactive: no binding seen”.
Then B19, with “inactive: no binding seen”.
